System: Spiroplasma melliferum B88 membrane
Test: Membrane protein extraction with detergents, spiroplasmal membrane
Details: 75 mM HECAMEG

## CCCCCCCNC(=O)OC[C@H]1O[C@H](OC)[C@H](O)[C@@H](O)[C@@H]1O [HECAMEG, 6-0 (N-Heptylcarbamoyl) methyl α-D-glucopyranoside]
  ratio protein extracted per detergent: 26 ug of protein/μmol of detergent
